Reference: publication PMC7601681 (Biomolecules, 2020)

Experiment: general procedure: Fmoc solid-phase peptide synthesis; 2-chlorotrityl chloride resin; DMT/NMM/TosO-, NMM
Conditions: whole synthesis, Anal. RP-HPLC; LC-MS for identity, scale 0.1 mmol

With PEPTIDE1{[PyBu].V.E.A.L.Y.L}$$$$V2.0 the “crude HPLC purity” value was 78%.
With Py-LYQLENY-OH the “crude HPLC purity” value was 77%.

Some peptides are written in HELM: one residue between dots, names in brackets for other building blocks, links after the first $.
